Measurements reported in PubChem BioAssay AID1259405 (NCATS, 2018)
Assay: 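Knock-downs that lift recombinant protein yield in hamster ovary cells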 (primary screen). System: Chinese hamster CHO-K1 ovary cells with stable secreted eGFP expression. Reagents: single siRNA against mouse genes, 0.8 pmol siRNA per well (2 µl of 400 nM stock). Duration: 3 days. Measured: 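Percent of the per-plate non-targeting control median for intracellular GFP per well by laser scanning cytometry and for cell viability by ATP luminescence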. Scale: GFP, % of control: higher = more GFP per well, higher productivity; viability (ATP), % of control: higher = more viable cells (more ATP). Hit rule: 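Called active when intracellular GFP, relative to negative control, is at or above 120%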.
This is a random part of about 50,000 reagents. About 4,000 of all reagents (8%) count as active. 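Mouse siRNA library applied to hamster cells; one well for each siRNA.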 The numbers tell different reagents against one gene apart.

Brip1 #1 scored GFP, % of control 74.8; viability (ATP), % of control 82.1; inactive.
Against Brip1 #2 the deposit lists GFP, % of control 54.3; viability (ATP), % of control 72.5; inactive.
After knock-down of Brip1 #3, the record shows GFP, % of control 62.8; viability (ATP), % of control 68.1; inactive.
With knock-down of Il19 #1 the results were GFP, % of control 47.8; viability (ATP), % of control 48.1; inactive.
Silencing of Il19 #2 resulted in: GFP, % of control 81.1; viability (ATP), % of control 87.7; inactive.
Depletion of Il19 #3 came out at: GFP, % of control 47.8; viability (ATP), % of control 75.3; inactive.
Knock-down of Usp42 #1 resulted in: GFP, % of control 83.5; viability (ATP), % of control 58.4; inactive.
Knock-down of Usp42 #2 gave: GFP, % of control 74.9; viability (ATP), % of control 91; inactive.
Depletion of Usp42 #3 resulted in: GFP, % of control 93.3; viability (ATP), % of control 88.9; inactive.
Knock-down of Or4f57 #1 resulted in: GFP, % of control 161; viability (ATP), % of control 118; active.
Silencing of Or4f57 #2 gave: GFP, % of control 43.1; viability (ATP), % of control 67.1; inactive.
Silencing of Or4f57 #3 resulted in: GFP, % of control 90.7; viability (ATP), % of control 121; inactive.
Or4f57 #4 showed GFP, % of control 114; viability (ATP), % of control 91.1; inactive.
Depletion of Or4f57 #5 resulted in: GFP, % of control 60.4; viability (ATP), % of control 103; inactive.
Against Or4f57 #6, the entry reads GFP, % of control 100; viability (ATP), % of control 84.2; inactive.
Knock-down of Suv39h1 #1 resulted in: GFP, % of control 51.7; viability (ATP), % of control 75.8; inactive.
Silencing of Suv39h1 #2 resulted in: GFP, % of control 80.4; viability (ATP), % of control 96.5; inactive.
For Rpain #1 the deposit lists GFP, % of control 50.1; viability (ATP), % of control 59.2; inactive.
For Rpain #2, the entry reads GFP, % of control 44; viability (ATP), % of control 78.5; inactive.
Rpain #3 gave GFP, % of control 107; viability (ATP), % of control 118; inactive.
For Clcn1 #1, the entry reads GFP, % of control 94.3; viability (ATP), % of control 129; inactive.
For Clcn1 #2, the entry reads GFP, % of control 195; viability (ATP), % of control 75.9; active.
After knock-down of Clcn1 #3 the results were GFP, % of control 43.2; viability (ATP), % of control 54.1; inactive.
Against Slc26a8 #1, the values are GFP, % of control 117; viability (ATP), % of control 79.4; inactive.
After knock-down of Slc26a8 #2, the screen gave GFP, % of control 95.2; viability (ATP), % of control 89.1; inactive.
Against Slc26a8 #3, the values are GFP, % of control 66.3; viability (ATP), % of control 67.6; inactive.
Vpreb1b #1 gave GFP, % of control 48; viability (ATP), % of control 36; inactive.
Vpreb1b #2 gave GFP, % of control 77.7; viability (ATP), % of control 73.7; inactive.
Vpreb1b #3 showed GFP, % of control 56.3; viability (ATP), % of control 48.3; inactive.
After knock-down of Aip #1 the results were GFP, % of control 85.4; viability (ATP), % of control 62.3; inactive.
With knock-down of Aip #2 the results were GFP, % of control 127; viability (ATP), % of control 91; active.
Against Aip #3, the entry reads GFP, % of control 71.2; viability (ATP), % of control 124; inactive.
Against Lca5 #1, the values are GFP, % of control 88; viability (ATP), % of control 101; inactive.
After knock-down of Lca5 #2, the screen gave GFP, % of control 107; viability (ATP), % of control 68.4; inactive.
Knock-down of Lca5 #3 came out at: GFP, % of control 101; viability (ATP), % of control 91.3; inactive.
With knock-down of Mlh3 #1, the record shows GFP, % of control 81.2; viability (ATP), % of control 93.5; inactive.
Knock-down of Mlh3 #2 gave: GFP, % of control 75.7; viability (ATP), % of control 72.3; inactive.
Knock-down of Mlh3 #3 gave: GFP, % of control 73.2; viability (ATP), % of control 78; inactive.
Knock-down of Asb10 #1 came out at: GFP, % of control 29.2; viability (ATP), % of control 43.6; inactive.
Silencing of Asb10 #2 resulted in: GFP, % of control 58.9; viability (ATP), % of control 70; inactive.
With knock-down of Krt10 #1, the record shows GFP, % of control 56.2; viability (ATP), % of control 60.3; inactive.
Depletion of Krt10 #2 came out at: GFP, % of control 91.6; viability (ATP), % of control 95.5; inactive.
Prrx1 #1 scored GFP, % of control 94.4; viability (ATP), % of control 60.5; inactive.
With knock-down of Prrx1 #2 the results were GFP, % of control 107; viability (ATP), % of control 70.5; inactive.
Prrx1 #3 scored GFP, % of control 111; viability (ATP), % of control 92.3; inactive.
For Hgf #1, the entry reads GFP, % of control 79.1; viability (ATP), % of control 106; inactive.
Depletion of Hgf #2 came out at: GFP, % of control 100; viability (ATP), % of control 49.4; inactive.
Depletion of Hgf #3 resulted in: GFP, % of control 70.8; viability (ATP), % of control 78.4; inactive.
Against Herpud2 #1, the entry reads GFP, % of control 124; viability (ATP), % of control 55.2; active.
Against Herpud2 #2, the values are GFP, % of control 120; viability (ATP), % of control 94.8; inactive.
Knock-down of Herpud2 #3 gave: GFP, % of control 88; viability (ATP), % of control 119; inactive.
Or6ae1 #1 scored GFP, % of control 125; viability (ATP), % of control 44.6; active.
Silencing of Or6ae1 #2 came out at: GFP, % of control 75.4; viability (ATP), % of control 92; inactive.
Depletion of Or6ae1 #3 came out at: GFP, % of control 40.5; viability (ATP), % of control 36.9; inactive.
